In all, about 400,000 compounds went through this assay and about 13,000 (3.2%) were called active. The inconclusive results got no clear call from the source; some entries with a clear call stand among them for comparison. The call rests on the fitted dose curve; in most records, active means well fitted cell-killing curve with a large enough effect; inconclusive means small, poorly fitted or top-dose-only effect, or effect the other way; inactive means flat fitted curve, though single readings scatter. A potency beside an inconclusive call is a rough fit, not a confirmed value.
Experiment: qHTS assay for MDR1-selective chemotherapeutics: Primary screen using the drug-selected MDR subline cells KB-V1; further: nearly all actives have a fitted effect of over 60% in size
Details: KB-V1 MDR cells viability, CellTiter-Glo, 72 h; activity change, negative = cytotoxicity: at 46.1 µM (top of the series)
How it was run: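 Cytotoxicity toward P-gp-expressing KB-V1 cells was determined as loss of CellTiter-Glo luminescence after 72 h at 37 degrees C. Compounds were tested in quantitative HTS format across a concentration range, with curves fitted to normalized data.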
On the % scale 0 is the no-effect control and ±100 the full control effect; potency means the concentration at half of the fitted maximal effect.

Row | Structure (SMILES) | Potency | activity change, negative = cytotoxicity
1 | COc1ccc(S(=O)(=O)N2CCN(CCC(=O)Nc3ccccc3F)CC2)cc1 | inconclusive: 7.31 µM [cytotoxic, partial curve] | 
2 | COc1ccccc1N1CCN(C(=O)c2sc3ncnc(N4CCN(c5ccccn5)CC4)c3c2C)CC1 | active: 23.1 µM | 
3 | C[C@@H]1CCCCO[C@H](CN(C)Cc2ccccc2)[C@@H](C)CN([C@H](C)CO)C(=O)c2cc(NS(=O)(=O)c3ccc(Cl)cc3)ccc2O1 |  | inactive: -12.7%
4 | COc1ccc(-c2nn(-c3ccccc3)cc2CN(C)CCn2ccnc2C)c(F)c1 | active: 9.2 µM | 
5 | C=CCc1ccc(OCCCCNC(C)CC)c(OC)c1 (stereo not given) | inconclusive: 23.1 µM [cytotoxic, partial curve, poor fit] | 
6 | COc1cc([N+](=O)[O-])ccc1NC(=O)C[n+]1cccc(C)c1 | inconclusive: 32.6 µM [rising, single point] | 
7 | COc1ccc(NC(=S)NCc2ccc3c(c2)cc(C)n3C)cc1 |  | inactive: -13.4%
8 | Cc1ccc(NC(=O)c2ncn(CCCN(CCCn3cnc(C(=O)Nc4ccc(C)c(C)c4)n3)Cc3ccc4[nH]ccc4c3)n2)cc1C |  | inactive: 0.0002%
9 | COC(=O)Nc1ccc(S(=O)(=O)N2CCCCC2)cc1 | active: 8.2 µM | 
10 | CCOc1ccccc1NC(=O)C1CCCN(C(=O)NCc2ccccc2)C1 (stereo not given) | active: 8.2 µM | 
11 | CCCCNC(=S)NNC(=O)c1csc2c1CCC(C)C2 (stereo not given) |  | inactive: -5.53%
12 | CC(/C=C/c1ccccc1)=N/NC(=O)c1cccc(Br)c1 | inconclusive: 20.6 µM [cytotoxic, partial curve, poor fit] | 
13 | CCOc1c(C)cc(S(=O)(=O)NCc2cccnc2)c(C)c1C | inconclusive: 14.6 µM [cytotoxic, partial curve] | 
14 | CC(OC(=O)c1cc(Br)ccc1O)C(=O)NC1(C#N)CCCCC1 (stereo not given) | inconclusive: 1.46 µM [rising, full curve, poor fit] | 
15 | CC(=O)Nc1ccc(NC(=O)CN(C)S(=O)(=O)c2ccc3nc(C)sc3c2)cc1 | inconclusive: 8.2 µM [rising, partial curve, poor fit] | 
16 | N#Cc1ccccc1OCCCNC1CCCC1 |  | inactive: 29.4%
17 | O=C(CCn1c(=O)oc2ccccc21)N1CCN(c2ccccc2F)CC1 | active: 23.1 µM | 
18 | CC(=O)Nc1ccc(C(=O)CSc2cc(C)c3cccc(C)c3n2)cc1 | active: 13 µM | 
19 | CC1=CC(C)(C)N2C(=O)C3(NCCc4c3[nH]c3ccccc43)c3cccc1c32 (stereo not given) | inconclusive: 14.6 µM [cytotoxic, partial curve] | 
20 | O=C(c1ccc(C(F)(F)F)cc1)N1CCC(=O)N(C(COCc2ccc(Cl)cc2)Cc2ccccc2)CC1 (stereo not given) | inconclusive: 29.1 µM [cytotoxic, single point] | 

In a second layout: two of the compounds above.
COc1ccc(-c2nn(-c3ccccc3)cc2CN(C)CCn2ccnc2C)c(F)c1
  Potency: active: 9.2 µM
COC(=O)Nc1ccc(S(=O)(=O)N2CCCCC2)cc1
  Potency: active: 8.2 µM
